# In PubChem BioAssay (NCATS):
# Protein sequences, listed by entry. Tags and fused reporters are not part of them. Lines headed by an entry give the natural chain unless they say otherwise; changes in a name come on top.
# UniProt Q03181: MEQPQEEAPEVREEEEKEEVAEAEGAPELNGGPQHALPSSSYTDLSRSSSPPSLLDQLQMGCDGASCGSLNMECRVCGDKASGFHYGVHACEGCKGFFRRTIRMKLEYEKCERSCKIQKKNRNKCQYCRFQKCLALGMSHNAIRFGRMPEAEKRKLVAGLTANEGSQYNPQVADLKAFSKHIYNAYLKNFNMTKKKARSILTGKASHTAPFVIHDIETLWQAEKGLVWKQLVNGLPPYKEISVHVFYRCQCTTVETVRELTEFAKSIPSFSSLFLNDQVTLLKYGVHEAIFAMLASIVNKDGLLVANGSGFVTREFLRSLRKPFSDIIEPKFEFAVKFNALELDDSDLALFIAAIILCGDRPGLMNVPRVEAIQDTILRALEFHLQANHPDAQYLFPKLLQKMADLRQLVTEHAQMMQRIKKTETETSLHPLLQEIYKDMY
# UniProt P10828: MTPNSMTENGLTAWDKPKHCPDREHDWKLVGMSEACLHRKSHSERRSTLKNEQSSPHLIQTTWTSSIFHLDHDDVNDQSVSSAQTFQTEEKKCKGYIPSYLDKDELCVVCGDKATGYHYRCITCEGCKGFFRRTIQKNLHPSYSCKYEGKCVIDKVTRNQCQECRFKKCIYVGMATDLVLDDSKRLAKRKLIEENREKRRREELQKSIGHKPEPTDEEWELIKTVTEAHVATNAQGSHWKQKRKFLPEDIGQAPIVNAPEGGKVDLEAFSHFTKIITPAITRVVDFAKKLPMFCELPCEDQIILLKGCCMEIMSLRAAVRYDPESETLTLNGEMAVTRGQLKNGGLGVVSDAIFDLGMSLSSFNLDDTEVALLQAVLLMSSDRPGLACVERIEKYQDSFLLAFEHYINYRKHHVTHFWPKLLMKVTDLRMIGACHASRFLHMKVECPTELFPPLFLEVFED
# UniProt P19793: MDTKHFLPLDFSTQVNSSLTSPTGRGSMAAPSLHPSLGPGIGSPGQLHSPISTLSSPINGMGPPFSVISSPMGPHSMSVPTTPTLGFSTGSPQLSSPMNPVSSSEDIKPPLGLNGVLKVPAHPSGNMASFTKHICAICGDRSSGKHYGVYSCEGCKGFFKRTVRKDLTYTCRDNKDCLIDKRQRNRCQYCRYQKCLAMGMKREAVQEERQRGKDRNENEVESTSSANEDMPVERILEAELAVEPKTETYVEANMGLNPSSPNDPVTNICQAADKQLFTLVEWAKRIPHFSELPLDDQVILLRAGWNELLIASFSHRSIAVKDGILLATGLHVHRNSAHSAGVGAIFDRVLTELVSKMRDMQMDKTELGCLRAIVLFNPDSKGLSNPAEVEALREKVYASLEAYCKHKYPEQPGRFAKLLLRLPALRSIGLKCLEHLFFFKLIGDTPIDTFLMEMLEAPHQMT
# UniProt P01375, whole entry, looked up: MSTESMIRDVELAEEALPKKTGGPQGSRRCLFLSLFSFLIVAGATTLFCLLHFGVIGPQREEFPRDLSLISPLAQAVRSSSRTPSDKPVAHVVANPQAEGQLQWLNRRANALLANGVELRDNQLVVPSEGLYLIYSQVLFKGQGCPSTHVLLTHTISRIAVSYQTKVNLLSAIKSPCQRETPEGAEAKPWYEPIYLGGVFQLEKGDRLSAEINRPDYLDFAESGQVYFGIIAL
# This list was built around the results that the source calls inconclusive (neither active nor inactive); the mix of calls is not that of the screen. For part of these data: Where the call is inconclusive, the potency comes from a doubtful curve fit. For part of these data: A note “side channel” means that the fit belongs to a control or component signal, not to the main read-out. Active and inactive are the calls of the source. Unless noted, calls come from the whole dose curve; as a rule, active = well fitted curve in the direction sought with a large enough effect; inconclusive = small, poorly fitted or top-dose-only effect, or another doubt; inactive = no such curve, though single readings can be large; an effect the other way counts as inactive or inconclusive.
# Experiments:
# [1] = molecular target: Peroxisome proliferator-activated receptor delta (Homo sapiens) (UniProt Q03181); test: qHTS assay for small molecule antagonists of peroxisome proliferator-activated receptor delta signaling (AID 588535; active = well fitted inhibition curve with a large enough effect in the signal ratio, with a control signal flat, not every such curve was filed as active; inconclusive = small, poorly fitted or top-dose-only effect, or effect the other way, or a change in a side signal; inactive = no such curve, though single readings can be large or run the other way; the % refers to the signal ratio); conditions: HEK293T PPARd-UAS-bla, beta-lactamase FRET ratio, 18 h; activity change, negative = inhibition: at 76.7 µM (top of the series) unless noted
# Summary of the method: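 Antagonist-mode qHTS using GeneBLAzer PPAR-delta-UAS-bla HEK293T cells; compound exposure 18 hrs at 37 C over a titration. Ratiometric CCF4 fluorescence at 460/530 nm; concentration-response points fitted to the Hill equation.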
# [2] = qHTS assay for small molecule agonists of the antioxidant response element (ARE) signaling pathway (AID 651741; active = well fitted activation curve with a large enough effect in the signal ratio; inconclusive = small, poorly fitted or top-dose-only effect, or effect the other way, or a change in a side signal; the % refers to the signal ratio; note: potency is the fitted concentration of half-maximal effect; for activation: % of control where 0% means no effect); conditions: HepG2 ARE-bla reporter, beta-lactamase FRET ratio, 16 h; activation: at 96 µM (top of the series) unless noted
# Summary of the method: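 Agonist activity is measured as ARE-driven beta-lactamase expression in a stable HepG2 reporter line, using 16 h compound treatment at 37 C and a FRET substrate fluorescence readout after 2 h.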
# [3] = molecular target: Peroxisome proliferator-activated receptor gamma (Homo sapiens) (UniProt P37231); test: qHTS assay for small molecule antagonists of peroxisome proliferator-activated receptor gamma signaling (AID 588537; active = well fitted inhibition curve with a large enough effect in the signal ratio, with a control signal flat, not every such curve was filed as active; inconclusive = small, poorly fitted or top-dose-only effect, or effect the other way, or a change in a side signal; the % refers to the signal ratio;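 note: reporter cells co-stimulated with 50 nM rosiglitazone agonist during compound treatment; % of control where 0% means no effect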); conditions: HEK293 PPARg-UAS-bla, beta-lactamase ratio, antagonist mode; activity, negative = inhibition: at 76.8 µM (top of the series) unless noted
# Summary of the method: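 Cell-based beta-lactamase assay; GW9662 served as the antagonist control. Stimulation used rosiglitazone, final 50 nM, 16 h, 37 C.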
# [4] = molecular target: Vitamin D3 receptor (Homo sapiens) (UniProt P11473); test: qHTS assay for small molecule agonists of vitamin D receptor signaling (AID 588543; calls by dose curve;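 note: 0% = DMSO basal and 100% = reference agonist control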); conditions: HEK293T VDR-UAS-bla, beta-lactamase ratio, 16 h; activation: at 76.8 µM (top of the series)
# Summary of the method: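 β-lactamase reporter, VDR-UAS-bla HEK293T, agonist mode. Cells plated 5 h at 37 °C, compound titration 16 h at 37 °C, CCF4 dye 2 h RT, ratio 460/530 nm. Hill fit → EC50, efficacy vs 50 nM 1α,25-(OH)2D3.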
# [5] = molecular target: Thyroid hormone receptor beta (Homo sapiens) (UniProt P10828); test: qHTS assay for small molecule agonists of thyroid hormone receptor beta signaling (AID 588545; calls by dose curve; note: potency is the fitted concentration of half-maximal effect); conditions: TR-UAS-bla GripTite HEK 293, beta-lactamase ratio, agonist mode, 18 h; activation: at 76.7 µM, percent of T3 response, DMSO as zero
# Summary of the method: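 In this cell-based screen, titrated compounds act on HEK 293 cells held in medium with 2% charcoal/dextran FBS, NEAA and pyruvate for 18 hrs at 37 C. Responses are expressed relative to T3 (10 nM) as 100% and basal DMSO as 0%.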
# [6] = molecular target: Retinoic acid receptor RXR-alpha (Homo sapiens) (UniProt P19793); test: qHTS assay for small molecule antagonists of retinoid X receptor alpha signaling (AID 588546; active = well fitted inhibition curve with a large enough effect in the signal ratio, with a control signal flat, not every such curve was filed as active; inconclusive = small, poorly fitted or top-dose-only effect, or effect the other way, or a change in a side signal; inactive = no such curve, though single readings can be large or run the other way; the % refers to the signal ratio;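 note: cells stimulated with 9-cis-retinoic acid as agonist; % is set by controls: 0 for no effect and ±100 for the full control effect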); conditions: HEK293T RXRa-UAS-bla, beta-lactamase ratio, antagonist mode
# Summary of the method: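 Beta-lactamase reporter inhibition, read as CCF4 fluorescence ratio (ex 405, em 460/530 nm) after 2 h at RT. HEK293T UAS-bla cells, 2500/well, were stimulated with 9-cis-RA at 500 or 100 nM final alongside test compound for 18 h at 37 C.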
# [7] = qHTS assay to identify small molecules that stimulate interleukin-8 (IL-8) secretion (AID 651758; active = well fitted activation curve with a large enough effect in the signal ratio; inconclusive = small, poorly fitted or top-dose-only effect, or effect the other way, or a change in a side signal; the % refers to the signal ratio; note: 0% is about no effect); conditions: HTRF ratio (665/615)
# Summary of the method: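 Secreted IL-8 measured homogeneously by TR-FRET (two labelled anti-IL-8 antibodies, 1-3 h at room temperature) after a 16 h, 37 C compound treatment of THP-1 cells at 2000 cells/well.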
# [8] = qHTS assay for small molecule antagonists of the retinoid-related orphan receptor gamma (ROR-gamma) signaling pathway - cell viability counter screen (AID 720652; active = well fitted curve in the direction sought with a large enough effect in the repeat runs; inconclusive = weak or mixed curves; inactive = no such curve, though single readings can be large; an effect the other way counts as inactive or inconclusive;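 note: potency is the fitted concentration of half-maximal effect; compound exposure lasted 16 hr before ATP read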)
# Summary of the method: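 CHO RORE-LUC/TET-ROR line, 1,000 cells/well, 37 C 5% CO2 5 hr; cpd or DMSO + doxycycline induction, 16 hr. CellTiter-Glo, 30 min RT, luminescence = ATP content.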
# [9] = Cellular Toxicity (caspase-3) HepG2 (AID 654);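 note: cells exposed to compound for 16 hours before reading; 0% = DMSO alone and 100% = caspase signal from 100 µM tamoxifen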
# Summary of the method: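 Luminescent Caspase-Glo 3/7 readout after 16 hr compound exposure of human hepatocellular carcinoma HepG2 cells at 37 °C; qHTS concentration-response, normalized DMSO = 0%, 100 uM tamoxifen = 100%; AC50 by standard Hill equation.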
# [10] = Cell Viability - LYMP2-016 (AID 984);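 note: cells exposed to compound for 24 hours at 37 °C; % is set by controls: 0 for no effect and ±100 for the full control effect; nearly all actives have a fitted effect of over 55% in size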
# Summary of the method: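 qHTS, 1536-well: 2500 LYMP2-016 cells/well, 5 hr 37 C, compound added, 24 hr 37 C, CellTiter-Glo 30 min RT, luminescence. Tetraoctylammonium bromide positive control. AC50 via Hill fit.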
# [11] = molecular target: Peroxisome proliferator-activated receptor gamma (Homo sapiens) (UniProt P37231); test: qHTS assay for small molecule agonists of peroxisome proliferator-activated receptor gamma signaling (AID 588536; active = well fitted curve in the direction sought with a large enough effect in the signal ratio, with a control signal flat, not every such curve was filed as active; inconclusive = small, poorly fitted or top-dose-only effect, or effect the other way, or a change in a side signal; inactive = no such curve, though single readings can be large or run the other way; the % refers to the signal ratio; note: potency is the fitted concentration of half-maximal effect;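 for activation: 0% = DMSO basal wells and 100% = rosiglitazone at 2 µM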); conditions: HEK293 PPARg-UAS-bla, beta-lactamase ratio, 16 h; activation: at 76.7 µM (top of the series), percent of rosiglitazone response, DMSO as zero
# Summary of the method: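 Compound treatment: 16 h, 37 C, HEK293 GeneBLAzer cells. Detection: CCF4, 2 h RT. Values: Hill-fit EC50, efficacy as % of 2 uM rosiglitazone.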
# [12] = qHTS assay for small molecule agonists of the antioxidant response element (ARE) signaling pathway measured by Nrf2-dependant transcriptional activity (AID 720636; active = well fitted curve in the direction sought with a large enough effect in the repeat runs; inconclusive = weak or mixed curves; inactive = no such curve, though single readings can be large; an effect the other way counts as inactive or inconclusive; note: % of control where 0% means no effect)
# Summary of the method: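 ARE-luc HepG2 cells carrying an Nrf2-responsive luciferase reporter were plated in medium with 1% dialyzed FBS, left 6 hr at 37 C to attach, then exposed to compound for 16 hr. Luciferase luminescence was read after ONE-Glo addition.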
# [13] = Cellular Toxicity (caspase-3) Jurkat (AID 655); conditions: Jurkat caspase-3 activation, luminescence, DMSO = 0%, tamoxifen = 100%; at 92.2 µM (top of the series);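 note: cells exposed to compound for 16 h at 37 °C before reading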
# Summary of the method: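 Luminescent caspase-3/7 readout (aminoluciferin substrate cleavage) in human T-cell leukemia Jurkat cells after 16 hr compound exposure. Concentration-response normalized to DMSO and 100 uM tamoxifen; AC50 by standard Hill equation.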
# [14] = Cell Viability - LYMP2-004 (AID 966); conditions: LYMP2-004 lymphoblastoid cell viability, qHTS; activity change, negative = cytotoxicity: at 92.2 µM (top of the series);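 note: plate controls were DMSO only for no effect and tetraoctylammonium bromide control for full effect; nearly all actives have a fitted effect of over 65% in size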
# Summary of the method: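 Luminescent ATP read-out (CellTiter-Glo, 30 min RT) after 24 hr compound exposure at 37 C; 2500 lymphoblastoid cells/well, complete medium. Decrease in ATP = cytotoxicity; AC50 from standard Hill model.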
# [15] = molecular target: Retinoic acid receptor RXR-alpha (Homo sapiens) (UniProt P19793); test: qHTS assay for small molecule agonists of retinoid X receptor alpha signaling (AID 588544; calls by dose curve;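 note: 0% = DMSO basal wells and 100% = reference agonist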); conditions: HEK293T RXRa-UAS-bla, beta-lactamase reporter, 18 h; activation: at 76.7 µM (top of the series)
# [16] = molecular target: Thyroid hormone receptor beta (Homo sapiens) (UniProt P10828); test: qHTS assay for small molecule antagonists of thyroid hormone receptor beta signaling (AID 588547; active = well fitted inhibition curve with a large enough effect in the signal ratio, with a control signal flat, not every such curve was filed as active; inconclusive = small, poorly fitted or top-dose-only effect, or effect the other way, or a change in a side signal; the % refers to the signal ratio;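 note: cells stimulated with 0.4 nM T3 agonist during compound exposure; % is set by controls: 0 for no effect and ±100 for the full control effect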); conditions: TR-UAS-bla HEK293, beta-lactamase ratio, antagonist mode, 18 h
# Summary of the method: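 Inhibition of T3-driven (0.4nM final) beta-lactamase reporter activity was measured over 0.59 nM to 92 uM compound after 18 h at 37 C. The cells were GripTite HEK293 TR-UAS-bla in charcoal/dextran-stripped serum, with CCF4 ratio read-out and IC50 from Hill fits.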
# [17] = Cell Viability - LYMP1-002 - Assay at 24 hr (AID 993); conditions: LYMP1-002 lymphoblastoid cells viability; at 92.2 µM (top of the series); note: % is set by controls: 0 for no effect and ±100 for the full control effect
# Summary of the method: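 CellTiter-Glo luminescence (intracellular ATP) after 24 h compound exposure, 37 C, in LYMP1-002 human lymphoblastoid cells; decreased ATP taken as cytotoxicity. AC50 from standard Hill fit of concentration-response curves.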
# [18] = molecular target: Tumor necrosis factor (Homo sapiens) (UniProt P01375); test: qHTS assay to identify small molecules that stimulate Tumor Necrosis Factor-alpha (TNF-alpha) secretion (AID 651757; active = well fitted curve in the direction sought with a large enough effect in the signal ratio; inconclusive = small, poorly fitted or top-dose-only effect, or a change in a side signal; inactive = no such curve, though single readings can be large or run the other way; the % refers to the signal ratio; note: 0% is about no effect); conditions: Human cells, HTRF 665/615 ratio; activation (TNF-alpha secretion): at 92.2 µM (top of the series)
# Summary of the method: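 THP-1 cells, 3000/well; compound 17 hrs, 37 C; add cryptate/XL665 anti-TNF-alpha antibody pair; 3 hr RT; TR-FRET (HTRF) read of secreted TNF-alpha. Quantitative HTS format.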
# [19] = qHTS assay for cell viability of HEK293 cells (AID 743288); conditions: ATP luminescence (CellTiter-Glo), 18 h; max response: stronger effect = lower value; note: % is set by controls: 0 for no effect and ±100 for the full control effect; nearly all actives have a fitted effect of over 50% in size
# Summary of the method: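 ATP luminescence (CellTiter-Glo) reports metabolically competent cell number after parental HEK293 cells, 2,000/well, were treated with DMSO-dissolved compounds for 18 h at 37 C; reagent incubation 30 min, room temperature.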
# [20] = Cell Viability - LYMP2-021 (AID 974);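 note: compound exposure lasts 24 hours at 37 °C; % is set by controls: 0 for no effect and ±100 for the full control effect; nearly all actives have a fitted effect of over 55% in size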
# Summary of the method: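 ATP luminescence (CellTiter-Glo, 30 min RT) after 24 h compound exposure at 37 C; 2500 human lymphoblastoid cells/well, 5 h settle beforehand. Cytotoxicity = concentration-dependent ATP drop, AC50 by Hill fit.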
# [21] = Cell Viability - LYMP2-014 (AID 983);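 note: plate controls were DMSO only for no effect and 92 µM tetraoctylammonium bromide for full effect; nearly all actives have a fitted effect of over 50% in size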
# Summary of the method: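 2500 cells/well, 5 hr 37 C; cpd 24 hr 37 C, complete medium; CellTiter-Glo 30 min RT, luminescence; ATP loss = toxicity; AC50 via Hill eqn; tetraoctylammonium bromide positive control.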
# [22] = qHTS assay for small molecule disruptors of the mitochondrial membrane potential - 1 hr assay (AID 651754; calls by dose curve; note: % is set by controls: 0 for no effect and ±100 for the full control effect; nearly all actives have a fitted effect of over 35% in size); conditions: ratio change, negative = depolarisation: at 92.2 µM (top of the series)
# Summary of the method: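 Read-out: dye fluorescence at 490 nm ex/535 nm em (monomers) and 540 nm ex/590 nm em (aggregates) in HepG2 cells. Compound exposure 1 hr at 37C, followed by 30 min dye loading.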
# [23] = molecular target: Vitamin D3 receptor (Homo sapiens) (UniProt P11473); test: qHTS assay for small molecule antagonists of vitamin D receptor signaling (AID 588541; calls by dose curve;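 note: receptor activated by calcitriol during compound treatment; % is set by controls: 0 for no effect and ±100 for the full control effect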); conditions: HEK293T VDR-UAS-bla, beta-lactamase ratio, antagonist mode; activity change, negative = inhibition: at 76.7 µM (top of the series)
# [24] = qHTS assay for small molecule agonists of the antioxidant response element (ARE) signaling pathway measured by Nrf2-dependant transcriptional activity - cell viability counter screen (AID 720653; active = well fitted curve in the direction sought with a large enough effect in the repeat runs; inconclusive = weak or mixed curves; inactive = no such curve, though single readings can be large; an effect the other way counts as inactive or inconclusive; note: % is set by controls: 0 for no effect and ±100 for the full control effect); conditions: ARE-bla HepG2 viability, CellTiter-Glo ATP luminescence, 16 h; max response: stronger effect = lower value
# Summary of the method: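 Cytotoxicity counter screen: intracellular ATP quantified by CellTiter-Glo luminescence in the same ARE-bla HepG2 plates, after 16 h compound exposure and a 2 h beta-lactamase substrate step.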
# [25] = activation: at 92.2 µM (top of the series)
structure (smiles),measurement,setting,value
CC(C)C(=O)OC(=O)C(C)C,Potency,[1],inactive
same,activation,[2],inconclusive: 21.9%
C/C=C(/C)C#N,"activity, negative = inhibition",[3],inconclusive: 8.89%
same,activation,[4],inconclusive: 14.8%
same,activation,[5],inactive: -9.88%
same,max response,[6],inactive: 32%
same,Potency,[2],inactive
same,activation,[7]; [25],inconclusive: -24.2%
same,Potency,[8],"inconclusive: 75 µM [rising, partial curve, poor fit]"
O=NO,Potency,[9],inactive
same,Potency,[10],inactive
same,Potency,[11],inactive
same,"activity, negative = inhibition",[3],inconclusive: 8.16%
same,activation,[7]; at 92.2 µM (top of the series),inactive: 16.6%
same,activation,[7]; [25],inconclusive: 0.553%
same,Potency,[12],inactive
Cc1ccc(C(=O)O)cc1,caspase-3 activation,[13],inactive: 1.89%
same,Potency,[14],inactive
same,"activity, negative = inhibition",[3],inconclusive: 13.7%
same,Potency,[15],inactive
same,activation,[5],inactive: -2.36%
same,Potency,[2],"inconclusive: 21.1 µM [side channel, rising, partial curve, poor fit]"
same,activation,[7]; [25],inconclusive: -20.6%
Cc1ccc2c(c1)C(=O)OC2=O,Potency,[3],inactive
same,Potency,[15],inactive
same,Potency,[5],"inconclusive: 0.0447 µM [side channel, falling, full curve, poor fit]"
same,activity change % (negative = inhibition),[16],inactive: -5.6%
CCOc1ccc(NC(C)=O)cc1N,"activity change, negative = cytotoxicity",[17],inactive: 0.805%
same,"activity, negative = inhibition",[3],inconclusive: 5.79%
same,Potency,[15],inactive
same,max response,[6],inconclusive: 36%
same,Potency,[2],inactive
same,activation (TNF-alpha secretion),[18],inconclusive: 0.431%
same,Potency,[7]; [25],inactive
same,max response,[19],inactive: -2.43%
CC1=CC(=O)CC(C)(C)C1,Potency,[11],"inconclusive: 50.1 µM [activator, single point]"
same,Potency,[3],inactive
same,activation,[2],inconclusive: 2.65%
OC(CCl)CCl,Potency,[20],inactive
same,Potency,[21],inactive
same,"activity change, negative = inhibition",[1],inconclusive: -19.1%
same,Potency,[2],inactive
same,Potency,[22],inactive
O=C(O)c1c(Cl)cccc1Cl,"activity change, negative = inhibition",[1],inconclusive: -8.68%
same,Potency,[7]; [25],inactive
Cl[Si](Cl)(c1ccccc1)c1ccccc1,Potency,[3],inactive
same,"activity change, negative = inhibition",[23],inconclusive: 20.7%
same,max response,[6],inactive: -0.846%
same,activity change % (negative = inhibition),[16],inconclusive: -7.73%
same,Potency,[2],active: 54.5 µM
same,max response,[24],inactive: -10.9%
